Assay results reported in publication PMC6321145 (Molecules, 2018).

System: mice
Assay: Step-down passive avoidance test, scopolamine-induced memory impairment
Type: in vivo
Conditions: 5 mg/kg
Procedure: A step-down passive avoidance test was used to assess learning and memory in mice. The apparatus (Shanghai XinRuan, Shanghai, China) consisted of two identically sized compartments, with a guillotine door to separate light and dark. Illumination was available in the light box through LED lights at 250 lux. The mice underwent two separate trials: a training trial and a test trial 24 h later. For training trial, mice were initially placed in the light compartment and were allowed to explore the environment freely for 5 min so that they can be familiar with the environment. Then the door was opened, the mice tried to enter the dark compartment since they preferred to stay in dark place. As soon as the mice came into the dark compartment, an electrical shock was delivered through the steel rods. The training lasted for 5 min. […] The test trial was preformed after 24 h. The mice were placed into the light compartment and the door was opened. The time that the mouse spent to enter the dark compartment was recorded as the latency. The numbers that the mouse entered the dark compartment during 5 min were measured as error numbers.

SMILES: COc1cc2c(cc1OC)C(=O)C(CC1CCN(Cc3ccccc3)CC1)C2 (centres unmarked) [donepezil, reference compound]
- Latency time: 176 s
- Number of errors: 2.87
